Experimental data from article PMC2754437.
Results are given in words; binding and its absence hold for the method and conditions named. In cells and extracts the contact can be indirect. Some entries that bind do so weakly or less than the wild type.

Sequences of proteins named here, by UniProt entry; tags and fusion partners are left off. A change or cut given only in a name is not applied to a line headed by its entry. A line that says so, or that is headed by a name, gives the form on record, which may keep a tag or linker. Residues count along the entry.
UniProt Q04887: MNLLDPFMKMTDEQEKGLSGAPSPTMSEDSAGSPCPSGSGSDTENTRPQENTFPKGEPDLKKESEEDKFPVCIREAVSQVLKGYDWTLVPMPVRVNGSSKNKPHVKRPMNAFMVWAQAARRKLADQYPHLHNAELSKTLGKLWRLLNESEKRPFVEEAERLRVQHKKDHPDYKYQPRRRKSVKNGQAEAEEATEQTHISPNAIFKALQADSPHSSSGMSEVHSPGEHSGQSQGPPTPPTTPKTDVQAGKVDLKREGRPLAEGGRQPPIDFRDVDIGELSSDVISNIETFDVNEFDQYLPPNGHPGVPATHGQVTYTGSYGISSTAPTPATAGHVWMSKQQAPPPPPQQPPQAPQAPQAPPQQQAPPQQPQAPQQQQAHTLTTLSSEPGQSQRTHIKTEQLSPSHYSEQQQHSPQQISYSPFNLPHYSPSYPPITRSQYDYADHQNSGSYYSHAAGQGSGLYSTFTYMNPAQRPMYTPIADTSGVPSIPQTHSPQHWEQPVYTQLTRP
Flag-tagged Sox9 with mutation of all Sox9 methylation sites (residues 74, 152, 177, 178, and 179, R to K) (Q04887, form named): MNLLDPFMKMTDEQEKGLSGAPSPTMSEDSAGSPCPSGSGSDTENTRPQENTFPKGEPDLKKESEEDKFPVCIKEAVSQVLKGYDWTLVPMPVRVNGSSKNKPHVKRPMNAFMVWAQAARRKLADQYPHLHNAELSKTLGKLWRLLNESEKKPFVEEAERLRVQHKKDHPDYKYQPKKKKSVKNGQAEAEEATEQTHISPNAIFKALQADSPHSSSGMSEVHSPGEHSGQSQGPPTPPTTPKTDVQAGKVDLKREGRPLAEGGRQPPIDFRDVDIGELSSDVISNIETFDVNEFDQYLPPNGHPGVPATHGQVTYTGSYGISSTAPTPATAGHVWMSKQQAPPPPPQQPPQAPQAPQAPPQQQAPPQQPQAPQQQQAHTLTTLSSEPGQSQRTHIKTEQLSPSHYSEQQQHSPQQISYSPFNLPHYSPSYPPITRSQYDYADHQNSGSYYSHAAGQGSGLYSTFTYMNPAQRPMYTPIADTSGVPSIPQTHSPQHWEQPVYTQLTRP
UniProt P35222: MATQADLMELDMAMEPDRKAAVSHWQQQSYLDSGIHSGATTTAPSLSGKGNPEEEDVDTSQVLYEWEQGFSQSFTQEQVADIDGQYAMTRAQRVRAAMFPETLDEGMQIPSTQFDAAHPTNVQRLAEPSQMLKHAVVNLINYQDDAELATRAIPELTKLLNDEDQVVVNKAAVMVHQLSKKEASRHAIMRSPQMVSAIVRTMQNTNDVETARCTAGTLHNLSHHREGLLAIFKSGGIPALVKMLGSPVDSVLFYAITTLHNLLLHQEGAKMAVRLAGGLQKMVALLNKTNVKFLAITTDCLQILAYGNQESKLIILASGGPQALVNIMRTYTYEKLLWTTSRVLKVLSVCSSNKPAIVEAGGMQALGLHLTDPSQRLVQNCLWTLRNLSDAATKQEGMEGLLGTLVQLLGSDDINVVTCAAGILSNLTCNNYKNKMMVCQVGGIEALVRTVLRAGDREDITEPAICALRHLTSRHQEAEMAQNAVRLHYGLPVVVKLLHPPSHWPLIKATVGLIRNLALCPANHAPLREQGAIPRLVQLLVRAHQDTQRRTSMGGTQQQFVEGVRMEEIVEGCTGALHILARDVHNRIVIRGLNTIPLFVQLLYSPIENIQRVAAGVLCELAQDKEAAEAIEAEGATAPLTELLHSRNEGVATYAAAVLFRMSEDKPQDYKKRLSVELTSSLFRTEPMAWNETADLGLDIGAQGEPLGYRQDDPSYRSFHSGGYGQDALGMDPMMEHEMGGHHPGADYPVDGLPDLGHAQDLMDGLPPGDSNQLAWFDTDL

What was measured:
[1] = biological target: Flag-tagged Sox9 with mutation of all Sox9 methylation sites (residues 74, 152, 177, 178, and 179, R to K) (UniProt Q04887); assay: co-IP; as the co-IP from SW1353 cells, with CARM1 overexpressed (high-dose CARM1); anti-Flag M2 precipitation, blot with anti-beta-catenin
[2] = biological target: Flag-tagged Sox9, wild type (UniProt Q04887); assay: as above
[3] = biological target: Flag-tagged Sox9 with mutation of all Sox9 methylation sites (residues 74, 152, 177, 178, and 179, R to K) (UniProt Q04887); assay: co-IP; SW1353 cells transfected with wt or mutant Flag-Sox9; extracts in RIPA buffer (50 mM Tris-HCl pH 7.5, 200 mM NaCl, 1% Nonidet P-40); anti-Flag M2 precipitation, blot with anti-beta-catenin
[4] = biological target: Flag-tagged Sox9, wild type (UniProt Q04887); assay: as above

binding [1]: binds
binding [2]: binds weakly
binding [3]: binds
binding [4]: binds
Substance: endogenous beta-catenin (from UniProt P35222 1-781)
